This is one part of the list.
Tests used:
Experiment in all cases: glycan array binding signal (z-score within array); higher = stronger binding
Settings in all cases: glycan notation: IUPAC condensed, linker removed
[1] = molecular target: Fuc(a1-2)Gal(b1-4)GlcNAc(b1-3)Gal(b1-4)GlcNAc(b1-2)Man(a1-3)[Fuc(a1-2)Gal(b1-4)GlcNAc(b1-3)Gal(b1-4)GlcNAc(b1-2)Man(a1-6)]Man(b1-4)GlcNAc(b1-4)GlcNAc
Procedure, shortened: (§1)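 The binding signal is a Z-score computed within each array. Data were drawn from 3228 arrays in the Consortium for Functional Glycomics database, restricted to those with a known protein sequence. Scores were averaged over arrays of the same protein sequence at different concentrations or buffers, and over linkers, and negative values can be taken as non-binding.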

[2] = molecular target: Fuc(a1-2)Gal(b1-4)GlcNAc(b1-3)Gal(b1-4)GlcNAc(b1-3)Gal(b1-4)GlcNAc
Procedure, shortened: as §1

[3] = molecular target: Fuc(a1-2)Gal(b1-4)GlcNAc(b1-3)GalNAc
Procedure, shortened: as §1

[4] = molecular target: Fuc(a1-2)Gal(b1-4)GlcNAc(b1-3)[Fuc(a1-2)Gal(b1-4)GlcNAc(b1-6)]GalNAc
Procedure, shortened: as §1

[5] = molecular target: Fuc(a1-2)Gal(b1-4)GlcNAc(b1-3)[Fuc(a1-3)[Gal(b1-4)]GlcNAc(b1-6)]Gal(b1-4)Glc
Procedure, shortened: as §1

[6] = molecular target: Fuc(a1-2)Gal(b1-4)GlcNAc(b1-6)GalNAc
Procedure, shortened: as §1

[7] = molecular target: Fuc(a1-2)Gal(b1-4)GlcNAc6S
Procedure, shortened: as §1

[8] = molecular target: Fuc(a1-2)Gal(b1-4)[Fuc(a1-3)]GlcNAc
Procedure, shortened: as §1

[9] = molecular target: Fuc(a1-2)Gal(b1-4)[Fuc(a1-3)]GlcNAc(b1-2)Man(a1-3)[Fuc(a1-2)Gal(b1-4)[Fuc(a1-3)]GlcNAc(b1-2)Man(a1-6)]Man(b1-4)GlcNAc(b1-4)[Fuc(a1-6)]GlcNAc
Procedure, shortened: as §1

[10] = molecular target: Fuc(a1-2)Gal(b1-4)[Fuc(a1-3)]GlcNAc(b1-2)[Fuc(a1-2)Gal(b1-4)[Fuc(a1-3)]GlcNAc(b1-4)]Man(a1-3)[Fuc(a1-2)Gal(b1-4)[Fuc(a1-3)]GlcNAc(b1-2)Man(a1-6)]Man(b1-4)GlcNAc(b1-4)GlcNAc
Procedure, shortened: as §1

[11] = molecular target: Fuc(a1-2)Gal(b1-4)[Fuc(a1-3)]GlcNAc(b1-3)Gal(b1-4)[Fuc(a1-3)]GlcNAc
Procedure, shortened: as §1

[12] = molecular target: Fuc(a1-2)Gal(b1-4)[Fuc(a1-3)]GlcNAc(b1-3)Gal(b1-4)[Fuc(a1-3)]GlcNAc(b1-3)Gal(b1-4)[Fuc(a1-3)]GlcNAc
Procedure, shortened: as §1

[13] = molecular target: Fuc(a1-2)Gal(b1-4)[Fuc(a1-3)]GlcNAc(b1-3)GalNAc
Procedure, shortened: as §1

[14] = molecular target: Fuc(a1-2)Gal(b1-4)[Fuc(a1-3)]GlcNAc(b1-3)[Neu5Ac(a2-6)Gal(b1-4)GlcNAc(b1-6)]Gal(b1-4)Glc
Procedure, shortened: as §1

[15] = molecular target: Fuc(a1-2)Gal3S(b1-4)GlcNAc
Procedure, shortened: as §1

[16] = molecular target: Fuc(a1-2)Gal6S(b1-3)GlcNAc
Procedure, shortened: as §1

[17] = molecular target: Fuc(a1-2)Gal6S(b1-3)GlcNAc6S
Procedure, shortened: as §1

Fuc(a1-2)Gal6S(b1-4)Glc = molecular target: Fuc(a1-2)Gal6S(b1-4)Glc
Procedure, shortened: as §1

[18] = molecular target: Fuc(a1-2)Gal6S(b1-4)Glc6S
Procedure, shortened: as §1

Fuc(a1-2)[Gal(a1-3)]Gal = molecular target: Fuc(a1-2)[Gal(a1-3)]Gal
Procedure, shortened: as §1

[19] = molecular target: Fuc(a1-2)[Gal(a1-3)]Gal(b1-3)GalNAc
Procedure, shortened: as §1

[20] = molecular target: Fuc(a1-2)[Gal(a1-3)]Gal(b1-3)GalNAc(b1-3)Gal(a1-4)Gal(b1-4)Glc
Procedure, shortened: as §1

[21] = molecular target: Fuc(a1-2)[Gal(a1-3)]Gal(b1-3)GlcNAc
Procedure, shortened: as §1

[22] = molecular target: Fuc(a1-2)[Gal(a1-3)]Gal(b1-3)GlcNAc(b1-2)Man(a1-3)[Fuc(a1-2)[Gal(a1-3)]Gal(b1-3)GlcNAc(b1-2)Man(a1-6)]Man(b1-4)GlcNAc(b1-4)GlcNAc
Procedure, shortened: as §1

[23] = molecular target: Fuc(a1-2)[Gal(a1-3)]Gal(b1-3)GlcNAc(b1-2)Man(a1-3)[Fuc(a1-2)[Gal(a1-3)]Gal(b1-3)GlcNAc(b1-2)Man(a1-6)]Man(b1-4)GlcNAc(b1-4)[Fuc(a1-6)]GlcNAc
Procedure, shortened: as §1

[24] = molecular target: Fuc(a1-2)[Gal(a1-3)]Gal(b1-3)GlcNAc(b1-3)GalNAc
Procedure, shortened: as §1

[25] = molecular target: Fuc(a1-2)[Gal(a1-3)]Gal(b1-3)GlcNAc(b1-6)GalNAc
Procedure, shortened: as §1

[26] = molecular target: Fuc(a1-2)[Gal(a1-3)]Gal(b1-4)Glc
Procedure, shortened: as §1

[27] = molecular target: Fuc(a1-2)[Gal(a1-3)]Gal(b1-4)GlcNAc
Procedure, shortened: as §1

[28] = molecular target: Fuc(a1-2)[Gal(a1-3)]Gal(b1-4)GlcNAc(b1-2)Man
Procedure, shortened: as §1

[29] = molecular target: Fuc(a1-2)[Gal(a1-3)]Gal(b1-4)GlcNAc(b1-2)Man(a1-3)[Fuc(a1-2)[Gal(a1-3)]Gal(b1-4)GlcNAc(b1-2)Man(a1-6)]Man(b1-4)GlcNAc(b1-4)GlcNAc
Procedure, shortened: as §1

[30] = molecular target: Fuc(a1-2)[Gal(a1-3)]Gal(b1-4)GlcNAc(b1-2)Man(a1-3)[Fuc(a1-2)[Gal(a1-3)]Gal(b1-4)GlcNAc(b1-2)Man(a1-6)]Man(b1-4)GlcNAc(b1-4)[Fuc(a1-6)]GlcNAc
Procedure, shortened: as §1

[31] = molecular target: Fuc(a1-2)[Gal(a1-3)]Gal(b1-4)GlcNAc(b1-3)GalNAc
Procedure, shortened: as §1

[32] = molecular target: Fuc(a1-2)[Gal(a1-3)]Gal(b1-4)GlcNAc(b1-3)[Fuc(a1-2)[Gal(a1-3)]Gal(b1-4)GlcNAc(b1-6)]GalNAc
Procedure, shortened: as §1

[33] = molecular target: Fuc(a1-2)[Gal(a1-3)]Gal(b1-4)GlcNAc(b1-6)GalNAc
Procedure, shortened: as §1

[34] = molecular target: Fuc(a1-2)[Gal(a1-3)]Gal(b1-4)[Fuc(a1-3)]Glc
Procedure, shortened: as §1

[35] = molecular target: Fuc(a1-2)[Gal(a1-3)]Gal(b1-4)[Fuc(a1-3)]GlcNAc
Procedure, shortened: as §1

[36] = molecular target: Fuc(a1-2)[Gal(a1-3)]Gal(b1-4)[Fuc(a1-3)]GlcNAc(b1-3)GalNAc
Procedure, shortened: as §1

[37] = molecular target: Fuc(a1-2)[Gal(a1-4)]Gal(b1-4)GlcNAc
Procedure, shortened: as §1

[38] = molecular target: Fuc(a1-2)[GalNAc(a1-3)]Gal
Procedure, shortened: as §1

[39] = molecular target: Fuc(a1-2)[GalNAc(a1-3)]Gal(b1-3)GalNAc(a1-3)[Fuc(a1-2)]Gal(b1-4)GlcNAc
Procedure, shortened: as §1

[40] = molecular target: Fuc(a1-2)[GalNAc(a1-3)]Gal(b1-3)GalNAc(b1-3)Gal(a1-4)Gal(b1-4)Glc
Procedure, shortened: as §1

[41] = molecular target: Fuc(a1-2)[GalNAc(a1-3)]Gal(b1-3)GlcNAc
Procedure, shortened: as §1

[42] = molecular target: Fuc(a1-2)[GalNAc(a1-3)]Gal(b1-3)GlcNAc(b1-2)Man(a1-3)[Fuc(a1-2)[GalNAc(a1-3)]Gal(b1-3)GlcNAc(b1-2)Man(a1-6)]Man(b1-4)GlcNAc(b1-4)GlcNAc
Procedure, shortened: as §1

[43] = molecular target: Fuc(a1-2)[GalNAc(a1-3)]Gal(b1-3)GlcNAc(b1-2)Man(a1-3)[Fuc(a1-2)[GalNAc(a1-3)]Gal(b1-3)GlcNAc(b1-2)Man(a1-6)]Man(b1-4)GlcNAc(b1-4)[Fuc(a1-6)]GlcNAc
Procedure, shortened: as §1

B1: MUB70 (Lactobacillus reuteri) (protein)
chain: CVHVQYIDGETDQMLRQDDLDGYTDETIPYSTAEGIKKFEGDGYELFKDNFPAGEKFDNDDTNDQFYTVIF
[1]
  glycan array binding signal (z-score): 0.338
[2]
  glycan array binding signal (z-score): 0.045
[3]
  glycan array binding signal (z-score): 0.04
[4]
  glycan array binding signal (z-score): -0.208
[5]
  glycan array binding signal (z-score): 0.671
[6]
  glycan array binding signal (z-score): 0.153
[7]
  glycan array binding signal (z-score): 0.29
[8]
  glycan array binding signal (z-score): -0.411
[9]
  glycan array binding signal (z-score): -0.091
[10]
  glycan array binding signal (z-score): 0.195
[11]
  glycan array binding signal (z-score): -0.087
[12]
  glycan array binding signal (z-score): 0.074
[13]
  glycan array binding signal (z-score): -0.248
[14]
  glycan array binding signal (z-score): -0.014
[15]
  glycan array binding signal (z-score): 0.054
[16]
  glycan array binding signal (z-score): 0.647
[17]
  glycan array binding signal (z-score): 2.39
Fuc(a1-2)Gal6S(b1-4)Glc
  glycan array binding signal (z-score): 0.562
[18]
  glycan array binding signal (z-score): 1.07
Fuc(a1-2)[Gal(a1-3)]Gal
  glycan array binding signal (z-score): -0.393
[19]
  glycan array binding signal (z-score): 0.507
[20]
  glycan array binding signal (z-score): 0.567
[21]
  glycan array binding signal (z-score): 1.39
[22]
  glycan array binding signal (z-score): -0.388
[23]
  glycan array binding signal (z-score): -0.317
[24]
  glycan array binding signal (z-score): -0.352
[25]
  glycan array binding signal (z-score): 0.035
[26]
  glycan array binding signal (z-score): 0.345
[27]
  glycan array binding signal (z-score): 0.671
[28]
  glycan array binding signal (z-score): 0.658
[29]
  glycan array binding signal (z-score): -0.278
[30]
  glycan array binding signal (z-score): -0.624
[31]
  glycan array binding signal (z-score): -0.384
[32]
  glycan array binding signal (z-score): -0.379
[33]
  glycan array binding signal (z-score): -0.784
[34]
  glycan array binding signal (z-score): 0.409
[35]
  glycan array binding signal (z-score): 0.047
[36]
  glycan array binding signal (z-score): -0.291
[37]
  glycan array binding signal (z-score): 0.099
[38]
  glycan array binding signal (z-score): -0.491
[39]
  glycan array binding signal (z-score): -0.674
[40]
  glycan array binding signal (z-score): 0.76
[41]
  glycan array binding signal (z-score): -0.003
[42]
  glycan array binding signal (z-score): -0.62
[43]
  glycan array binding signal (z-score): 0.065
